# Laboratory results taken from patent publication US4228285A, “14-Hydroxy-6-oxamorphinans and 14-hydroxy-6-oxaisomorphinans” (priority 1979, dated 1980).
# Tests used:
# [1] = assay type: in vivo
# [2] = assay type: in vivo; conditions: subcutaneous
compound,measurement,setting,value
"CN1CC[C@]23c4c5ccc(O)c4O[C@H]2[C@@H](O)C=C[C@H]3[C@H]1C5.O=S(=O)(O)O [morphine sulfate, reference compound]","Agonist Activity ED50, Mice (PO)",[1]; oral,3.1 mg/kg
same,"Agonist Activity ED50, Mice (SC)",[1]; subcutaneous,0.26 mg/kg
same,"Agonist Activity ED50, Rats (SC)",[2],0.16 mg/kg
